Source: patent US10344061B2 (CAREGEN CO., LTD., priority 2016, dated 2019)

Assay: general procedure: peptide synthesis; chlorotrityl chloride resin
Conditions: whole synthesis

Q: For ACTSSQLRSC, which crude mass is on record?
A: 0.73 g

Q: What about the crude yield (scale of the general procedure 700 mg resin) of the same sequence?
A: 87.1%

End groups of sequences in plain letters are not given here.
